Laboratory results as given in the supplement of paper PMC10849652.
Some of the results follow.

By UniProt entry, the sequences of proteins in these tests, tags left out. Where a name states a change or a piece, a line headed by the entry shows the natural chain unless it says otherwise.
UniProt Q5MIZ7: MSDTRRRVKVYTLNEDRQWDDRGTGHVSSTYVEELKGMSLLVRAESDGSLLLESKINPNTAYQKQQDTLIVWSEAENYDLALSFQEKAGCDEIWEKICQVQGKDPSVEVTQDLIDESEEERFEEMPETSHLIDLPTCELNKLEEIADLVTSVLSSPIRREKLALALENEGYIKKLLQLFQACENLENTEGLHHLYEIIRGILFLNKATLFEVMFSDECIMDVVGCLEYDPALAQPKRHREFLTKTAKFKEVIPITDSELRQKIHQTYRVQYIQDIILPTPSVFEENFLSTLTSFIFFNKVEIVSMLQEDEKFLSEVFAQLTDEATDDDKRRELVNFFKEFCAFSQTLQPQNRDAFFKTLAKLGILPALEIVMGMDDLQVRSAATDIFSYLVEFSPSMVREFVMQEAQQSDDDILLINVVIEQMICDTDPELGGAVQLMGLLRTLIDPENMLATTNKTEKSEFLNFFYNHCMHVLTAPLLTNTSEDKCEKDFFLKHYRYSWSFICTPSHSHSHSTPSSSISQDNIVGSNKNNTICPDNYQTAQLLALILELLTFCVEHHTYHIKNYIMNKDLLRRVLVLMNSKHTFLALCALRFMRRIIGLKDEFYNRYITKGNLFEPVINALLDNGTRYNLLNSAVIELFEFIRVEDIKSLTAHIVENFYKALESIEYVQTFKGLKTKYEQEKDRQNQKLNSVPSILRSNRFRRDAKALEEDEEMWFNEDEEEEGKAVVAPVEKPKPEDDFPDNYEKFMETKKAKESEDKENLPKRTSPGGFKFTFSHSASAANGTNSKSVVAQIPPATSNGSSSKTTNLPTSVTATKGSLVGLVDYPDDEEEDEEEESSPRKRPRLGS
UniProt Q13523: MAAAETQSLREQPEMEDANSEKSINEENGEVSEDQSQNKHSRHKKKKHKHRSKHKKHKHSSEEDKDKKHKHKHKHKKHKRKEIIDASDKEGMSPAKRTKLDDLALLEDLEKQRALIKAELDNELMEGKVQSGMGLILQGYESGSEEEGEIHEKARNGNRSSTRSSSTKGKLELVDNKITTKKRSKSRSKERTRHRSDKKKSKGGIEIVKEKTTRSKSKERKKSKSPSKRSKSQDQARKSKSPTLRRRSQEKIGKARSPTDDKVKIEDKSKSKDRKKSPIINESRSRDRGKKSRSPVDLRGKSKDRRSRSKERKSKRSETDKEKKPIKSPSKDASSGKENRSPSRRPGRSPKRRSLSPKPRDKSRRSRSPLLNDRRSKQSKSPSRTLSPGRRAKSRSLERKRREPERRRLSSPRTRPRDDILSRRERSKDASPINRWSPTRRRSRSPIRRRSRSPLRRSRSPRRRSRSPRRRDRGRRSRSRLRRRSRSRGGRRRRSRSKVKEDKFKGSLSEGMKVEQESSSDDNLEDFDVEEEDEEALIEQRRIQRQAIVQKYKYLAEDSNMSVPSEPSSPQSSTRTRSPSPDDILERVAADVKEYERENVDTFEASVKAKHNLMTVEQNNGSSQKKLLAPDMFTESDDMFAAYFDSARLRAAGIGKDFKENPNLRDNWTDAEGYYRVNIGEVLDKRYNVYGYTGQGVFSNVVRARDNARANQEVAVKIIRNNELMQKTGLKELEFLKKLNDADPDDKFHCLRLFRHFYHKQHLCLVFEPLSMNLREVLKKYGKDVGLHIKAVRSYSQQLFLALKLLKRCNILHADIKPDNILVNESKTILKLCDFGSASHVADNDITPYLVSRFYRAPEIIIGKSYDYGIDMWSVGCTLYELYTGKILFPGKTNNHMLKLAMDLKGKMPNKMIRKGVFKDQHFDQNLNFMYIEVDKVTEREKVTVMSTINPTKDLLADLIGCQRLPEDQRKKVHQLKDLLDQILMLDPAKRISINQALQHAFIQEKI
UniProt Q05655: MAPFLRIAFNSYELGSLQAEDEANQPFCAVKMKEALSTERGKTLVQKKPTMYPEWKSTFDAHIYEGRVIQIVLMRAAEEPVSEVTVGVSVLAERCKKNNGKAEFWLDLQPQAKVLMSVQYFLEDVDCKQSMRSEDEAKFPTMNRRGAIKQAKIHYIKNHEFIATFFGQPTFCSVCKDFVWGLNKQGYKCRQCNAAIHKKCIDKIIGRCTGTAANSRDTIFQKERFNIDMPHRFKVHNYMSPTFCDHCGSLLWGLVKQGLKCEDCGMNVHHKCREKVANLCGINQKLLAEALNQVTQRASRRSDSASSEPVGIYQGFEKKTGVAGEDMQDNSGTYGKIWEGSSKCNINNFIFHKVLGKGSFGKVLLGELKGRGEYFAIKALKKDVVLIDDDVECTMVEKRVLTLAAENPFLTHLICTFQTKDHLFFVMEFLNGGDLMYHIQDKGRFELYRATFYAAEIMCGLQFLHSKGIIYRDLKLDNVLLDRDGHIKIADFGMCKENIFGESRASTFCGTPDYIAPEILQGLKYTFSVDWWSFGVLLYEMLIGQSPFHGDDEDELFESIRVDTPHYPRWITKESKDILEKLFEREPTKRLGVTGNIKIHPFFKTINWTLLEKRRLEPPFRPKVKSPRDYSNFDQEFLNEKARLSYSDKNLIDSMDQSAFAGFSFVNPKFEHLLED
UniProt P49643: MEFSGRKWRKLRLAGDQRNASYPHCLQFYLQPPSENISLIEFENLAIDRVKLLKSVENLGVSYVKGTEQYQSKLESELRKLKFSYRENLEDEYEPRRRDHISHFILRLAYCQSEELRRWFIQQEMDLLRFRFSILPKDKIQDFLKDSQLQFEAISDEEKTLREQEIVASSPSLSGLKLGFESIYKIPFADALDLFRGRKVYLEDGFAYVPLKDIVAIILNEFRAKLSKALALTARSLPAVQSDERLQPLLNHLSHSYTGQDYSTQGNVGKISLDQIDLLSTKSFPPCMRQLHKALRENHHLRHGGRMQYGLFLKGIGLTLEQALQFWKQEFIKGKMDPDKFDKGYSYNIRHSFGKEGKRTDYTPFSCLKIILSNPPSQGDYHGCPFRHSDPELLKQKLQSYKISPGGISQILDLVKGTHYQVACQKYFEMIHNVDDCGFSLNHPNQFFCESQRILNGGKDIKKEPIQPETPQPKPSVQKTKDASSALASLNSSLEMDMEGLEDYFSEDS
UniProt P54619: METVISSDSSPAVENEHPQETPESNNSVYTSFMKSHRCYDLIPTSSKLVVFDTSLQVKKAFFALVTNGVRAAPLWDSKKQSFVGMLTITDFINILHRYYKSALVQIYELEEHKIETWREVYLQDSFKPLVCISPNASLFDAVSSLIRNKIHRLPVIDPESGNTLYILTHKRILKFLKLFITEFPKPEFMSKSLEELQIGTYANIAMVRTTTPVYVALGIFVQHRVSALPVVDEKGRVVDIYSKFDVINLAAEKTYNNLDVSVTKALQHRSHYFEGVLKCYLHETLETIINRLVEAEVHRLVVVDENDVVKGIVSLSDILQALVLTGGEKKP
UniProt P50897: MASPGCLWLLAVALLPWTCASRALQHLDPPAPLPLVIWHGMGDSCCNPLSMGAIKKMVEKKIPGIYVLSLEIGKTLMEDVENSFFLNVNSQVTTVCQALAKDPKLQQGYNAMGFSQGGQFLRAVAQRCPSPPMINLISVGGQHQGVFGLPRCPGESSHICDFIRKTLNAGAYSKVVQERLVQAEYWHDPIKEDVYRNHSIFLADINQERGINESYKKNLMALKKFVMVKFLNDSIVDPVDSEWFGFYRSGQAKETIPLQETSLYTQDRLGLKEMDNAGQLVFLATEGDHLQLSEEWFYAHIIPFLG
UniProt P30048: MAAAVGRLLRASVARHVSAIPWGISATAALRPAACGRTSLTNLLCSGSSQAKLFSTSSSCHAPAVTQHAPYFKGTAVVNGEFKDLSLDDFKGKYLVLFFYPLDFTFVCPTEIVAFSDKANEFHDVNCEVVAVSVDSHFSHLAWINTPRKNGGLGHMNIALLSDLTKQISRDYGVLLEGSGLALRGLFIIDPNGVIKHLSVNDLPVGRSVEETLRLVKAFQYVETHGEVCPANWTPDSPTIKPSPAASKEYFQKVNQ
UniProt P30153, whole entry, looked up: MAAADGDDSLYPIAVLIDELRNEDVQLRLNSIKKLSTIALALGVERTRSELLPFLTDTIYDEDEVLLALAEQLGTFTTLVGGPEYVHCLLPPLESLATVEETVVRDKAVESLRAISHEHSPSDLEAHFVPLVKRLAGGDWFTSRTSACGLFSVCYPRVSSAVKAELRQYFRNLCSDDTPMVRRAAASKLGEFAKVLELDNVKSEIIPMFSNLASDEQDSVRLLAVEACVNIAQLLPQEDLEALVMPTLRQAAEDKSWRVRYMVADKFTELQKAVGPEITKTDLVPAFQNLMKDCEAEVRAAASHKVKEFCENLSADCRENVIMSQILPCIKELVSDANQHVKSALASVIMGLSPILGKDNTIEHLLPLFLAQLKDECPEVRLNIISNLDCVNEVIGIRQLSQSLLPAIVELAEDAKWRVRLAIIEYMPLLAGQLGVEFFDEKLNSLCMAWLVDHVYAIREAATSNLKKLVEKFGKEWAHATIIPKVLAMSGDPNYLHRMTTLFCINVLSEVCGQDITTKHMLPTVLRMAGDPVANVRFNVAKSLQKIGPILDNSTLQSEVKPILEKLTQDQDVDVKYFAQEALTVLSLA
UniProt Q9NVM4: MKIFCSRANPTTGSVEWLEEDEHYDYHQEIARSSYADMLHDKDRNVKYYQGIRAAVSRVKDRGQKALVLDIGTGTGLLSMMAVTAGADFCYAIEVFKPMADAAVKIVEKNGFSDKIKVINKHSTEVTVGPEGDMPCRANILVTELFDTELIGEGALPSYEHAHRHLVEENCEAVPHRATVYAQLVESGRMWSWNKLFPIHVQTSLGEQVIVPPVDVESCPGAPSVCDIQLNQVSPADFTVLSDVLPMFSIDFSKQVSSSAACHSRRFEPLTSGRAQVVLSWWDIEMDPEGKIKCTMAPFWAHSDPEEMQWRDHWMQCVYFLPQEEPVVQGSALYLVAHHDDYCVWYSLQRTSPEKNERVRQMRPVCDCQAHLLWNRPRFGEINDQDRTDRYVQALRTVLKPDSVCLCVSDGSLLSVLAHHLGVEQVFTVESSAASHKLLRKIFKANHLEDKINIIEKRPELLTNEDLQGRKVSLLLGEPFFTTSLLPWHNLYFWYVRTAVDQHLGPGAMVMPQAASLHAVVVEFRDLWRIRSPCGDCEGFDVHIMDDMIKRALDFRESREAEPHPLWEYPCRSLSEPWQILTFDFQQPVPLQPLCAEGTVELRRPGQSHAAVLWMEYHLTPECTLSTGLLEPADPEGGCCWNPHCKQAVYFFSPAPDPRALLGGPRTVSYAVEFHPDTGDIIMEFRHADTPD
UniProt Q8WWY3: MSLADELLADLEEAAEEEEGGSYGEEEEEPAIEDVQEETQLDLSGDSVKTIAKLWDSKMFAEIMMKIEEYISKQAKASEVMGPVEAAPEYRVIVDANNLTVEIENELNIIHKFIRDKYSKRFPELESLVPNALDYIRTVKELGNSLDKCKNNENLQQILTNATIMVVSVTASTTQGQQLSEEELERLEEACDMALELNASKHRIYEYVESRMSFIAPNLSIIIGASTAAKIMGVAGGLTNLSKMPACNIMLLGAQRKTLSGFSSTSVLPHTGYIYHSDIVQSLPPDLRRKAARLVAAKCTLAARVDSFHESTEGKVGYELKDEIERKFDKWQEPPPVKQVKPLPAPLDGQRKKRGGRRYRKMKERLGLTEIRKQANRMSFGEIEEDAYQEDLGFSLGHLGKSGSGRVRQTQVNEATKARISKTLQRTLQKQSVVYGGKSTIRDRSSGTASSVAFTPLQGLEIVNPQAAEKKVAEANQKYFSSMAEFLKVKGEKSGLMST
UniProt P50336: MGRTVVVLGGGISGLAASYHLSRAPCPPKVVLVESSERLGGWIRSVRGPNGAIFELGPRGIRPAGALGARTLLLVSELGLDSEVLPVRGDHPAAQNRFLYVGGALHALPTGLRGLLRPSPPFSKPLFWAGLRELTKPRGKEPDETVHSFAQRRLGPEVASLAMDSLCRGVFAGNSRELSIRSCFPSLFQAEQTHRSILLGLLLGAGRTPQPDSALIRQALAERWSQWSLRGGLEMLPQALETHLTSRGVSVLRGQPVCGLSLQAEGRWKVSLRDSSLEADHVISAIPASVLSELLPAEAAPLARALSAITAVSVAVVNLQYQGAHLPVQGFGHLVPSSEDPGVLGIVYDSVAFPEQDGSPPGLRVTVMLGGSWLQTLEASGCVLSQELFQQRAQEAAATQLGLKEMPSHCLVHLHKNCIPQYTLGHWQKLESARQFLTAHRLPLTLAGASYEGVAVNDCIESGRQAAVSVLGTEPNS
UniProt Q9UNN8: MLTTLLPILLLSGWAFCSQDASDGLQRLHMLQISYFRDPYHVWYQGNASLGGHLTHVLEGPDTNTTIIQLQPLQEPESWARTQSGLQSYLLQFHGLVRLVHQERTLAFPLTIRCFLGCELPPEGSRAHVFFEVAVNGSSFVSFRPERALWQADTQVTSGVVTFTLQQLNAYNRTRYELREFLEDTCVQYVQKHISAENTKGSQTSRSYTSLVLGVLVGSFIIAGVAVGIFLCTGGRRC

How the values were obtained:
Test in all cases: log2 fold change, soluble protein after heating vs DMSO (PISA); higher = thermal stabilisation; K562 lysate, 10 uM; active = over 0.2 and 3.5 SD of the protein, either way, in both replicates (recomputed)
[1] = compound: CCCS(=O)(=O)Nc1ccc(F)c(C(=O)c2c[nH]c3ncc(-c4ccc(Cl)cc4)cc23)c1F [vemurafenib]
In short: (§1)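 To prepare the extract, K562 pellets were dounce-homogenised in PBS pH 7.4 with 1 mM MgCl2, giving crude material at 1 mg/mL protein. This was treated with 10 μM compound for 30 min, then heated in aliquots for 3 min over 48°C-58°C before pooling and addition of NP-40 to 0.5% at 4°C. Centrifugation at 21,000xg for 90 min left soluble protein in the supernatant, which TMTpro 16plex LC-MS/MS quantified with equalised channel sums. Results are log-two fold changes in thermal stability compared with solvent controls, from duplicates.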

[2] = compound: CCCS(=O)(=O)Nc1ccc(F)c(C(=O)c2c[nH]c3ncc(Cl)cc23)c1F
In short: as §1

[3] = compound: CCN(CCCOc1ccc2c(Nc3cc(CC(=O)Nc4cccc(F)c4)[nH]n3)ncnc2c1)CCOP(=O)(O)O [barasertib]
In short: as §1

[4] = compound: CC[C@@H]1C(=O)N(C)c2cnc(Nc3ccc(C(=O)NC4CCN(C)CC4)cc3OC)nc2N1C1CCCC1
In short: as §1

[5] = compound: CC[C@@H]1C(=O)N(C)c2cnc(Nc3ccc(C(=O)N[C@H]4CC[C@H](N5CCN(CC6CC6)CC5)CC4)cc3OC)nc2N1C(C)C [volasertib]
In short: as §1

[6] = compound: CCn1c(C(=O)N(C2CC2)C2CC2)cc2c3c(ncn3C)c(Nc3cc(C)n(C)n3)nc21
In short: as §1

[7] = compound: CCn1cc(-c2ccnc3[nH]c(-c4cccc(CN(C)C)c4)cc23)c(-c2ccc(NC(=O)N(C)C)cc2)n1
In short: as §1

[8] = compound: CN1CCC(CNc2ccc3ncc(-c4cccc(OC(F)(F)F)c4)n3n2)CC1
In short: as §1

[9] = compound: CN1CCN(CCOc2cc(OC3CCOCC3)c3c(Nc4c(Cl)ccc5c4OCO5)ncnc3c2)CC1 [saracatinib]
In short: as §1

[10] = compound: CN1CCN(c2nc(C3=C(c4c[nH]c5ccccc45)C(=O)NC3=O)c3ccccc3n2)CC1 [sotrastaurin]
In short: as §1

Measured: log2 fold change

PPP4R3B (UniProt Q5MIZ7)
inactive: [1] -0.054 | [2] 0.018 | [3] 0.029 | [4] -0.012 | [5] -0.019 | [6] -0.042 | [7] -0.006 | [8] 0.01 | [9] 0.024 | [10] -0.015

PRPF4B (UniProt Q13523)
inactive: [1] -0.001 | [2] 0.068 | [3] -0.017 | [4] -0.007 | [5] -0.022 | [6] -0.017 | [7] 0.006 | [8] 0.043 | [9] -0.014 | [10] -0.001

PRKACA (UniProt P17612)
inactive: [1] -0.036 | [2] -0.016 | [3] 0.006 | [4] 0.095 | [5] -0.043 | [6] -0.081 | [7] -0.418 | [8] 0.351 | [9] -0.075 | [10] 0.216

PRKCD (UniProt Q05655)
inactive: [1] -0.006 | [2] -0.118 | [3] 0.057 | [4] 0.008 | [5] -0.041 | [6] -0.014 | [7] 0.012 | [8] 0.021 | [9] -0.005 | [10] 0.058

PRIM2 (UniProt P49643)
inactive: [1] 0.025 | [2] 0.04 | [3] -0.005 | [4] -0.034 | [5] -0.048 | [6] 0.019 | [7] -0.027 | [8] -0.046 | [9] -0.03 | [10] 0.02

PRKAG1 (UniProt P54619)
inactive: [1] -0.014 | [2] 0.014 | [3] -0.002 | [4] -0.026 | [5] -0.06 | [6] 0.009 | [7] 0.043 | [8] 0.076 | [9] -0.022 | [10] 0.106

PPT1 (UniProt P50897)
inactive: [1] -0.001 | [2] 0.015 | [3] 0.02 | [4] -0.084 | [5] -0.06 | [6] 0.011 | [7] 0.055 | [8] -0.06 | [9] 0.009 | [10] 0.025

PRDX3 (UniProt P30048)
inactive: [1] 0.021 | [2] -0.003 | [3] 0.015 | [4] 0.07 | [5] 0.054 | [6] -0.024 | [7] 0.046 | [8] -0.076 | [9] -0.048 | [10] 0.031

PPP2R1A (UniProt P30153)
inactive: [1] -0.025 | [2] -0.011 | [3] 0.009 | [4] -0.005 | [5] -0.009 | [6] 0.007 | [7] 0.051 | [8] -0.026 | [9] 0.007 | [10] -0.019

Fetched one by one from the list above (2):
PRIM2 (UniProt P49643)
inactive: [1] 0.025 | [2] 0.04 | [3] -0.005 | [4] -0.034 | [5] -0.048 | [6] 0.019 | [7] -0.027 | [8] -0.046 | [9] -0.03 | [10] 0.02

PRKACA (UniProt P17612)
inactive: [1] -0.036 | [2] -0.016 | [3] 0.006 | [4] 0.095 | [5] -0.043 | [6] -0.081 | [7] -0.418 | [8] 0.351 | [9] -0.075 | [10] 0.216

Continuation:

PRMT7 (UniProt Q9NVM4)
inactive: [1] 0.058 | [2] -0.006 | [3] 0.018 | [4] -0.02 | [5] 0.001 | [6] -0.013 | [7] 0.013 | [8] 0.003 | [9] 0.045 | [10] 0.009

PRPF31 (UniProt Q8WWY3)
inactive: [1] 0 | [2] 0.014 | [3] 0.007 | [4] -0.006 | [5] -0.017 | [6] 0.042 | [7] 0.038 | [8] -0.032 | [9] 0.009 | [10] 0.015

PPOX (UniProt P50336)
inactive: [1] 0.058 | [2] 0.02 | [3] -0.093 | [4] -0.036 | [5] -0.007 | [6] -0.096 | [7] -0.075 | [8] -0.018 | [9] -0.044 | [10] -0.021

PROCR (UniProt Q9UNN8)
inactive: [1] -0.052 | [2] 0.049 | [3] 0.001 | [4] 0.099 | [5] 0.057 | [6] -0.079 | [7] -0.036 | [8] 0.086 | [9] -0.07 | [10] 0.146

PRKCQ (UniProt Q04759)
inactive: [1] -0.025 | [2] -0.003 | [3] -0.003 | [4] -0.023 | [5] -0.043 | [6] -0.001 | [7] 0.055 | [8] -0.006 | [9] -0.046 | [10] -0.012

PPP5C (UniProt P53041)
inactive: [1] 0.017 | [2] 0.003 | [3] -0.03 | [4] 0.034 | [5] 0.019 | [6] -0.014 | [7] -0.084 | [8] 0.063 | [9] -0.004 | [10] -0.002
